This note sets out measurements from article doi:10.1101/2020.07.15.204800 (bioRxiv, 2020).

Changes are numbered by the printed parent chain. Results are given in words; binding and its absence hold for the method and conditions named. Binding seen in cells or lysates may run through a third protein. Some results given as binding are weak or reduced against the parent protein; the word gives no strength. Sequences can lack the tags named with a protein.

What all share (assay): co-IP
Test [1] addresses T1, GFP fusion protein containing the WDR41 turn region (361-373).
T1 sequence: PVPTGFFNMWGFG

Another test has as its target T2, WDR41-HA G365A (UniProt Q9HAD4).
T2 sequence: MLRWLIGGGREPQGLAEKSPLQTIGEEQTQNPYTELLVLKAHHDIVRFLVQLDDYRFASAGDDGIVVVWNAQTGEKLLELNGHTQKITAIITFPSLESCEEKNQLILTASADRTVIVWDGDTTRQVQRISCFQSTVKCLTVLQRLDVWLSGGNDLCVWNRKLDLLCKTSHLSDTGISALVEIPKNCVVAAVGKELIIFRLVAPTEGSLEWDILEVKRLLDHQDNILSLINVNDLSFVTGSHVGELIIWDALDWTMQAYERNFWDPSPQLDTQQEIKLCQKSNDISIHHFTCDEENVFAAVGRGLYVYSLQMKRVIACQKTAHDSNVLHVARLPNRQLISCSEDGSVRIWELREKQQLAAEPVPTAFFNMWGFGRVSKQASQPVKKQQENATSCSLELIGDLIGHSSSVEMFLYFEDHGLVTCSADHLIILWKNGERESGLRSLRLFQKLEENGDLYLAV

In the next test the target is T3, WDR41-HA T364A (UniProt Q9HAD4).
T3 sequence: T2 sequence with T364A, A365G

For the next test, the target named is T4, WDR41-HA wild type (UniProt Q9HAD4).
T4 sequence: T2 sequence with A365G

Test [2] deals with T5, WDR41-HA with deletion of the turn sub-region of the 7CD loop (361-373) (UniProt Q9HAD4).
T5 sequence: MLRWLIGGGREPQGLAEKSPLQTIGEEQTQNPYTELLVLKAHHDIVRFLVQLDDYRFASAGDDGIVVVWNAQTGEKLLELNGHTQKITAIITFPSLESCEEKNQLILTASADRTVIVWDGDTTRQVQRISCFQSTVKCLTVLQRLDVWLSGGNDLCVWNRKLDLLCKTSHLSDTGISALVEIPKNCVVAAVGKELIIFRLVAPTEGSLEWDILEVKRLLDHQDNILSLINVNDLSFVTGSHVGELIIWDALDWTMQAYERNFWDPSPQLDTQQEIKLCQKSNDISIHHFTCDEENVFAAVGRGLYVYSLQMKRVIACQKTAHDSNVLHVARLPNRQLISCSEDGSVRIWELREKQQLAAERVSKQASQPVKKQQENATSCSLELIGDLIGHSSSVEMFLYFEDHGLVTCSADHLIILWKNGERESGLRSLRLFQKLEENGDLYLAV

The target of test [3] is T6, WDR41-HA with glycine 371 substituted by valine (UniProt Q9HAD4).
T6 sequence: T2 sequence with A365G, G371V

Test [4] addresses T7, WDR41-HA with the 7CD loop (residues 354-393) replaced by the flexible linker GGSGGGSG (UniProt Q9HAD4).
T7 sequence: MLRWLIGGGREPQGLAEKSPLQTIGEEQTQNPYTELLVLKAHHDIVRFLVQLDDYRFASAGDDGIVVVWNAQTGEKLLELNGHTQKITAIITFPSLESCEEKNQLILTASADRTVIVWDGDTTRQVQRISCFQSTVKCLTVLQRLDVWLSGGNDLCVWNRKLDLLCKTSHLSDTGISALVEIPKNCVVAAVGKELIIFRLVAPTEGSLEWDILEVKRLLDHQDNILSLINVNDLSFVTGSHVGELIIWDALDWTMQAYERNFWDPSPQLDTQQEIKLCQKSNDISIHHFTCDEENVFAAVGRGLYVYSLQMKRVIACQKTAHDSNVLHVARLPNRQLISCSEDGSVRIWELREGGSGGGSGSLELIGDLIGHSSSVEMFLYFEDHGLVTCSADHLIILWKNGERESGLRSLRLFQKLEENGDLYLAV

B1: SMCR8 (protein, UniProt Q8TEV9 1-937)
chain: MISAPDVVAFTKEEEYEEEPYNEPALPEEYSVPLFPFASQGANPWSKLSGAKFSRDFILISEFSEQVGPQPLLTIPNDTKVFGTFDLNYFSLRIMSVDYQASFVGHPPGSAYPKLNFVEDSKVVLGDSKEGAFAYVHHLTLYDLEARGFVRPFCMAYISADQHKIMQQFQELSAEFSRASECLKTGNRKAFAGELEKKLKDLDYTRTVLHTETEIQKKANDKGFYSSQAIEKANELASVEKSIIEHQDLLKQIRSYPHRKLKGHDLCPGEMEHIQDQASQASTTSNPDESADTDLYTCRPAYTPKLIKAKSTKCFDKKLKTLEELCDTEYFTQTLAQLSHIEHMFRGDLCYLLTSQIDRALLKQQHITNFLFEDFVEVDDRMVEKQESIPSKPSQDRPPSSSLEECPIPKVLISVGSYKSSVESVLIKMEQELGDEEYKEVEVTELSSFDPQENLDYLDMDMKGSISSGESIEVLGTEKSTSVLSKSDSQASLTVPLSPQVVRSKAVSHRTISEDSIEVLSTCPSEALIPDDFKASYPSAINEEESYPDGNEGAIRFQASISPPELGETEEGSIENTPSQIDSSCCIGKESDGQLVLPSTPAHTHSDEDGVVSSPPQRHRQKDQGFRVDFSVENANPSSRDNSCEGFPAYELDPSHLLASRDISKTSLDNYSDTTSYVSSVASTSSDRIPSAYPAGLSSDRHKKRAGQNALKFIRQYPFAHPAIYSLLSGRTLVVLGEDEAIVRKLVTALAIFVPSYGCYAKPVKHWASSPLHIMDFQKWKLIGLQRVASPAGAGTLHALSRYSRYTSILDLDNKTLRCPLYRGTLVPRLADHRTQIKRGSTYYLHVQSMLTQLCSKAFLYTFCHHLHLPTHDKETEELVASRQMSFLKLTLGLVNEDVRVVQYLAELLKLHYMQESPGTSHPMLRFDYVPSFLYKI
On to B1, for which the binding result in test [1] is given as “no binding”; with WDR41-HA G365A it was “binds”; with WDR41-HA T364A, “binds”; in the test with WDR41-HA wild type, “binds”; in test [2], “binds”; in test [3], “binds”. In addition, in test [4], the binding result is on record as “binds”.

B2: PQLC2-FLAG wild type (protein, UniProt Q6ZP29 1-291)
chain: MVWKKLGSRNFSSCPSGSIQWIWDVLGECAQDGWDEASVGLGLISILCFAASTFPQFIKAYKTGNMDQALSLWFLLGWIGGDSCNLIGSFLADQLPLQTYTAVYYVLADLVMLTLYFYYKFRTRPSLLSAPINSVLLFLMGMACATPLLSAAGPVAAPREAFRGRALLSVESGSKPFTRQEVIGFVIGSISSVLYLLSRLPQIRTNFLRKSTQGISYSLFALVMLGNTLYGLSVLLKNPEEGQSEGSYLLHHLPWLVGSLGVLLLDTIISIQFLVYRRSTAASELEPLLPS
With B2, the binding result is reported as “binds” in test [1]; “binds” with WDR41-HA G365A; “binds” with WDR41-HA T364A; “binds” with WDR41-HA wild type; “no binding” in test [2]; “binds” in test [3]. In test [4], the binding entry is reported as “no binding”.
